Laboratory results published in paper PMC4683533, “Discovery of novel INK4C small-molecule inhibitors to promote human and murine hematopoietic stem cell ex vivo expansion” (Scientific Reports, 2015).

System: HSCs (CD34−LKS cells)
Assay: single hematopoietic stem cell in vitro culture (nmEM colony) assay
Type: cell-based, mouse
Conditions: from ED50 values
Protocol: We biologically assessed the 22 putative p18SMI compounds for their ability to maintain HSCs stem cell characteristics, to be specific self-renewal and multi-lineage differentiation, using single cell cultures. […] Thus, we employed single HSC culture to assess p18SMI compounds’ effect upon HSCs. CD34^−LKS cells from C57BL/6 mice were individually deposited into a 96-well plate (one cell/well). The single cell was cultured for 14 days in 100 μL of serum-free medium (Gibco) containing 100 ng/mL of mouse stem cell factor (SCF), 10 ng/mL of mouse interleukin-3 (IL-3), 25 ng/mL of human thrombopoietin (TPO), 2 U/mL of human erythropoietin (EPO) and differing concentrations of the p18SMI compound. Cells were cultured 14 days for in vitro colony formation and colonies were then cytospined and analyzed by flow cytometry to test the subpopulation of cultured cells. Neutrophils (n), macrophages (m), erythroblasts (E) or megakaryocytes (M) were identified by the cell marker of Gr-1, Mac-1, Ter-119 and CD41 using flow cytometry. The wells from each group that generated all lineages (nmEM) were counted and the ratio to the control group (DMSO) was calculated.
Single CD34^-LKS cells from C57BL/6 mice were individually deposited into each well of a 96-well plate along with 100 μL of serum free medium (Gibco) containing 100 ng/mL of mouse SCF, 10 ng/mL of mouse IL-3, 25 ng/mL of human TPO, 2 U/mL of human EPO and p18SMI compounds (different dilutions). Cells were cultured in a 37 °C, 5% CO2 incubator for 14 days for ex vivo colony formation. Colonies were then cytospined and analyzed using flow cytometry. Neutrophils (n), macrophages (m), erythroblasts (E) or megakaryocytes (M) were identified based on their cell surface maker, Gr-1, Mac-1, Ter119 and CD41. Cells were measured on an FACS analyzer (FACSArray, BD Biosciences). […] The wells from each group that generated all lineages (nmEM) were counted. The ratio of p18SMI compound treatment group to the control group (DMSO-treated) was calculated and fitted to a curve to calculate the ED50 value using GraphPad Prism v6.0.

Row | SMILES | fold higher activity in HSCs compared to XIE18–6 [fold] | activity of compound 22 relative to compound 23
1 | CC(=O)Nc1ccc(S(=O)(=O)NCCO)cc1 [Compound 21] | 10 | 
2 | COC(=O)[C@H](NS(=O)(=O)c1ccc(NC(C)=O)cc1)c1ccccc1 [Compound 22] |  | over 1,000 fold
3 | O=C([O-])c1ccc(S(=O)(=O)NC2CCCCC2)cc1.[Na+] [Compound 40, sodium 4-(N-cyclohexylsulfamoyl)benzoate] | 20 | 
